Assay results published in PubChem BioAssay AID332 (DTP/NCI, 2004).
The list shows only some results of the screen, not a fair sample: its compounds were picked by chemical class. Other doses and runs of a compound may be missing. T/C gives the treated animals as a percentage of the vehicle group. Schedules are NCI's codes, read here as Q, the interval in days (D) or hours (H), X, the number of doses. Some T/C values carry the count of animals alive at the toxicity check; where neither a count nor a note follows, no animal had died by that day. Some entries give survivors of the animals treated and no T/C: the source files T/C as zero there, which appears to mark a toxic dose or a test without result, not a measured value. Counts of survivors are from the toxicity check, whose day is not always given; animals may have died later.

Tested on: mice, ADJ-PC-20 plasma cell tumor sc, T/C %
Experiment: NCI In Vivo Anticancer Drug Screen. Data for tumor model ADJ-PC-20 Plasma Cell (subcutaneous) in unknown mice
Conditions: T/C endpoint: mean tumor weight, higher T/C = larger tumour
Description: The antitumor activity of compounds was measured in mice bearing transplantable tumors. Survival or tumor size were measured and the results are expressed as the measurement made in the treated group (T) divided by the measurement made in the vehicle treated control group (C). The tumor model used in this assay is ADJ-PC-20 Plasma Cell (subcutaneous) in unknown mice

In the case of `CN(N=O)C(=N)N[N+](=O)[O-]`, the T/C (dose: 3.75 mg/kg/injection, schedule: Q01DX010 (ip), vehicle: carboxymethylcellulose (CMC), evaluated on day 21) is reported as 63 % of control, the survivor count (dose: 7.5 mg/kg/injection, schedule: Q01DX010 (ip), vehicle: carboxymethylcellulose (CMC)) is reported as 6 of 10 and the T/C (dose: 15.0 mg/kg/injection, schedule: Q01DX010 (ip), vehicle: carboxymethylcellulose (CMC), evaluated on day 21) is reported as 69 % of control. For the same compound, the survivor count (dose: 30.0 mg/kg/injection, schedule: Q01DX010 (ip), vehicle: carboxymethylcellulose (CMC)) was 1 of 10.

For `COC1OC(CNCCCl)C2OC(C)(C)OC12` (stereo unspecified), the T/C (dose: 65.0 mg/kg/injection, schedule: Q01DX010 (ip), vehicle: saline, evaluated on day 18) was 45 % of control, the T/C (dose: 108.0 mg/kg/injection, schedule: Q01DX010 (ip), vehicle: saline, evaluated on day 18) was 77 % of control and the T/C (dose: 180.0 mg/kg/injection, schedule: Q01DX010 (ip), vehicle: saline, evaluated on day 18) was 25 % of control [9 of 10 alive]. The survivor count (dose: 500.0 mg/kg/injection, schedule: Q01DX010 (ip), vehicle: saline) was 0 of 10.

With `OC(CNCCCl)C(O)C(O)C(O)CNCCCl` (stereo unspecified) the T/C (dose: 6.3 mg/kg/injection, schedule: Q01DX010 (ip), vehicle: saline, evaluated on day 21) was 29 % of control [9 of 10 alive], the survivor count (dose: 12.5 mg/kg/injection, schedule: Q01DX010 (ip), vehicle: saline) was 5 of 10 and the survivor count (dose: 25.0 mg/kg/injection, schedule: Q01DX010 (ip), vehicle: saline) was 0 of 10. The survivor count (dose: 50.0 mg/kg/injection, schedule: Q01DX010 (ip), vehicle: saline) was 0 of 10.

In the case of `Cc1[nH]c(=O)[nH]c(=O)c1N(CCCl)CCCl`, the T/C (dose: 0.25 mg/kg/injection, schedule: Q01DX010 (ip), vehicle: carboxymethylcellulose (CMC), evaluated on day 21) is reported as 100 % of control, the T/C (dose: 0.5 mg/kg/injection, schedule: Q01DX010 (ip), vehicle: carboxymethylcellulose (CMC), evaluated on day 21) is reported as 72 % of control and the T/C (dose: 1.0 mg/kg/injection, schedule: Q01DX010 (ip), vehicle: carboxymethylcellulose (CMC), evaluated on day 21) is reported as 56 % of control. For the same compound, the T/C (dose: 1.0 mg/kg/injection, schedule: Q01DX011 (ip), vehicle: carboxymethylcellulose (CMC), evaluated on day 21) was 43 % of control, the T/C (dose: 2.0 mg/kg/injection, schedule: Q01DX010 (ip), vehicle: carboxymethylcellulose (CMC), evaluated on day 21) was 5 % of control and the survivor count (dose: 4.0 mg/kg/injection, schedule: Q01DX011 (ip), vehicle: carboxymethylcellulose (CMC)) was 0 of 10. For the same compound, the survivor count (dose: 8.0 mg/kg/injection, schedule: Q01DX011 (ip), vehicle: carboxymethylcellulose (CMC)) was 0 of 10.

For `CC[C@H](C)[C@@H]1NC(=O)/C(=C(\C)O)C1=O`, the T/C (dose: 6.3 mg/kg/injection, schedule: Q01DX010 (ip), vehicle: water, evaluated on day 21) was 84 % of control [9 of 10 alive], the T/C (dose: 12.5 mg/kg/injection, schedule: Q01DX010 (ip), vehicle: water, evaluated on day 21) was 94 % of control and the T/C (dose: 12.5 mg/kg/injection, schedule: Q01DX011 (ip), vehicle: water, evaluated on day 21) was 69 % of control. The survivor count (dose: 25.0 mg/kg/injection, schedule: Q01DX010 (ip), vehicle: water) was 5 of 10, the survivor count (dose: 25.0 mg/kg/injection, schedule: Q01DX011 (ip), vehicle: water) was 6 of 10 and the survivor count (dose: 50.0 mg/kg/injection, schedule: Q01DX011 (ip), vehicle: water) was 1 of 10. For the same compound, the survivor count (dose: 100.0 mg/kg/injection, schedule: Q01DX011 (ip), vehicle: water) was 0 of 10.
